From US5420128A, “Pyrimidine derivatives, method of manufacturing the same, and androgen inhibitor” (Otsuka Pharmaceutical Co., Ltd., priority 1990, dated 1995)
At least one read-out could not be matched to a standard name with certainty.

Assays:
[1] = target: T1, rat prostate androgen receptor (Rattus norvegicus, UniProt P15207); test: inhibitory activity on binding of ^3 H-5α-DHT on rat prostate androgen receptor; conditions: ^3 H-5α-DHT 1 nM, rat ventral prostate cytosol, about 20 hours at 0° C.; read-out: Inhibitory activity on 5α-DHT specific binding [IC50 (M)]
T1 construct: the supernatant was obtained as cytoplasm fraction; from tissue; host or cells: cytosol (105000×g supernatant) of rat ventral prostate, 24 hours after castration
T1 sequence (P15207 1-902): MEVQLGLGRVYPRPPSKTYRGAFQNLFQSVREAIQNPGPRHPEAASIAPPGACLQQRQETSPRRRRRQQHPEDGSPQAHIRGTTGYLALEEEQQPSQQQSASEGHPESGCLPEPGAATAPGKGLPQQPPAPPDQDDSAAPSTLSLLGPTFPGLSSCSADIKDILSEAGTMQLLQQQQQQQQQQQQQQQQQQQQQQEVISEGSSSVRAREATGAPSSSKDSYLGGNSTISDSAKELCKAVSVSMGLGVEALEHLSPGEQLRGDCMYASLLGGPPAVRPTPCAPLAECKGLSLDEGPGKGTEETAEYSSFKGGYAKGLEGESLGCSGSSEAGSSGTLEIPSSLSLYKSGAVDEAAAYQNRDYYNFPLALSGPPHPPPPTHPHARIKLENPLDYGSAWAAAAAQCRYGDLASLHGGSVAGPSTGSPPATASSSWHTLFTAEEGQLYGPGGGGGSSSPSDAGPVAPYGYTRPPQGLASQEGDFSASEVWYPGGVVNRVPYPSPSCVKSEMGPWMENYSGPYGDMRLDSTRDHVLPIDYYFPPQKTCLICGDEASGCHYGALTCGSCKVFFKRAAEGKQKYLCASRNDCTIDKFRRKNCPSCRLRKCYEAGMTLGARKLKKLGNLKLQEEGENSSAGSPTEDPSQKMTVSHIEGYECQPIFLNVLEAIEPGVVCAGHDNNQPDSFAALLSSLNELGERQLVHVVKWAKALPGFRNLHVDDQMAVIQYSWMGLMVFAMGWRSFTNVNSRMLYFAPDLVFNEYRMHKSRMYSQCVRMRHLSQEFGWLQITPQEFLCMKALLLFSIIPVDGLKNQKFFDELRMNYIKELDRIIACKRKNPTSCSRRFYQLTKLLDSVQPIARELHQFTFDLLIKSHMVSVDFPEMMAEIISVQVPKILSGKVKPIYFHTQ
Description: The compounds obtained in Examples were evaluated in the following pharmacological studies A and B. The pharmacological study A was conducted in conformity with J.B.C. 256 (15) 7998-8005, 1981.
A. Measurement of inhibitory activity on binding of ^3 H-5α-[…] (^3 H-5α,-DHT) on rat prostate androgen receptor
(1) Preparation of cytosol from rat prostate
The rat was sacrificed 24 hours after castration, and the ventral lobe of prostate was removed, and was gently homogenized, on ice water bath, by using a Potter homogenizer in three-fold amount of 0.25M sucrose-TME buffer solution (50 mM tris-HCl (pH 7.4), 0.5 mM mercaptoethanol, and 0.1 mM EDTA-2 Na). […]
This precipitate was suspended again in 0.8 ml of the above buffer solution, and furthermore in order to remove the free type ^3 H-5α-DHT, 0.2 ml of dextran-carbon powder suspension (4% activated carbon, 0.1% dextran T-70, and 0.1% gelatin dissolved in the above buffer solution) was added and mixed, and the mixture was let stand for 10 minutes at 0° C. At 4° C., in succession, the mixture was centrifuged at 3000×g for 10 minutes, and 0.5 ml of the supernatant was transferred into a vial, and 10 ml of aquasol-2 was added, and radioactivity was measured, and the total binding amount of ^3 H-5α-DHT on the prostate cytoplasma androgen receptor was determined. […]

[2] = target: T1, rat prostate androgen receptor; test: inhibitory activity on binding of ^3 H-mibolerone on rat prostate androgen receptor; conditions: ^3 H-mibolerone 1 nM, triamcinolone acetonide 5 μM, rat ventral prostate cytosol, 20 hours at 0° C.; read-out: Inhibitory activity on mibolerone specific binding [IC50 (M)]

CCOC(=O)c1cnc2c(-c3ccc(Sc4ccccc4)cc3)cnn2c1O [Example 1, 6-Ethoxycarbonyl-7-hydroxy-3-(4-phenylthiophenyl)pyrazolo[1,5-a]pyrimidine]
IC50 [1]: 2e-06 M | IC50 [2]: 2e-07 M
